In publication PMC4401672:

Molecular target: T1, Tag-PDZK1 (TAP tag linked to full-length PDZK1), expressed in HEK293 cells (UniProt Q9JIL4)
T1 sequence: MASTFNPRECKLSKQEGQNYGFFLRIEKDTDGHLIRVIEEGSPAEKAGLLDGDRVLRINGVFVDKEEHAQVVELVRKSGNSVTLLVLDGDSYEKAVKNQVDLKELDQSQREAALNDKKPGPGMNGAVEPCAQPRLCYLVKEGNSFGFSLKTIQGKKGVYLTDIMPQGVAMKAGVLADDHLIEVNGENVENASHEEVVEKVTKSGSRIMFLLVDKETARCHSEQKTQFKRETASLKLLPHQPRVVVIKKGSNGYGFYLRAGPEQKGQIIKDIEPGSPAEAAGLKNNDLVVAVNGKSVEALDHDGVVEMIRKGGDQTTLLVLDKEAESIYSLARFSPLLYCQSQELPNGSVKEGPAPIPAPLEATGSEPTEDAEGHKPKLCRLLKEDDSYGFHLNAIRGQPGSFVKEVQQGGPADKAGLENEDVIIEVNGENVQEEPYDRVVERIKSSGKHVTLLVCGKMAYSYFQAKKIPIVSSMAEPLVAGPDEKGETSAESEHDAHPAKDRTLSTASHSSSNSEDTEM
Assay: affinity purification with mass spectrometry; tandem affinity purification of Tag-PDZK1 from lysates of adenovirus-infected HEK293 cells (IgG-Sepharose, TEV protease cleavage, streptavidin-Sepharose); eluates separated by SDS-PAGE, digested, analysed by MS with Mascot; TAP tag alone as control

B1: breakpoint cluster region kinase (Bcr), endogenous in HEK293 cells (protein, UniProt P11274 1-1271)
chain: MVDPVGFAEAWKAQFPDSEPPRMELRSVGDIEQELERCKASIRRLEQEVNQERFRMIYLQTLLAKEKKSYDRQRWGFRRAAQAPDGASEPRASASRPQPAPADGADPPPAEEPEARPDGEGSPGKARPGTARRPGAAASGERDDRGPPASVAALRSNFERIRKGHGQPGADAEKPFYVNVEFHHERGLVKVNDKEVSDRISSLGSQAMQMERKKSQHGAGSSVGDASRPPYRGRSSESSCGVDGDYEDAELNPRFLKDNLIDANGGSRPPWPPLEYQPYQSIYVGGMMEGEGKGPLLRSQSTSEQEKRLTWPRRSYSPRSFEDCGGGYTPDCSSNENLTSSEEDFSSGQSSRVSPSPTTYRMFRDKSRSPSQNSQQSFDSSSPPTPQCHKRHRHCPVVVSEATIVGVRKTGQIWPNDGEGAFHGDADGSFGTPPGYGCAADRAEEQRRHQDGLPYIDDSPSSSPHLSSKGRGSRDALVSGALESTKASELDLEKGLEMRKWVLSGILASEETYLSHLEALLLPMKPLKAAATTSQPVLTSQQIETIFFKVPELYEIHKEFYDGLFPRVQQWSHQQRVGDLFQKLASQLGVYRAFVDNYGVAMEMAEKCCQANAQFAEISENLRARSNKDAKDPTTKNSLETLLYKPVDRVTRSTLVLHDLLKHTPASHPDHPLLQDALRISQNFLSSINEEITPRRQSMTVKKGEHRQLLKDSFMVELVEGARKLRHVFLFTDLLLCTKLKKQSGGKTQQYDCKWYIPLTDLSFQMVDELEAVPNIPLVPDEELDALKIKISQIKNDIQREKRANKGSKATERLKKKLSEQESLLLLMSPSMAFRVHSRNGKSYTFLISSDYERAEWRENIREQQKKCFRSFSLTSVELQMLTNSCVKLQTVHSIPLTINKEDDESPGLYGFLNVIVHSATGFKQSSNLYCTLEVDSFGYFVNKAKTRVYRDTAEPNWNEEFEIELEGSQTLRILCYEKCYNKTKIPKEDGESTDRLMGKGQVQLDPQALQDRDWQRTVIAMNGIEVKLSVKFNSREFSLKRMPSRKQTGVFGVKIAVVTKRERSKVPYIVRQCVEEIERRGMEEVGIYRVSGVATDIQALKAAFDVNNKDVSVMMSEMDVNAIAGTLKLYFRELPEPLFTDEFYPNFAEGIALSDPVAKESCMLNLLLSLPEANLLTFLFLLDHLKRVAEKEAVNKMSLHNLATVFGPTLLRPSEKESKLPANPSQPITMTDSWSLEVMSQVQVLLYFLQLEAIPAPDSKRQSILFSTEV
  binding: binds

No constants are given. Whether binding was seen depends on the method and setting. Binding seen in cells or lysates may run through a third protein. These calls come from enrichment with a bait or labelling near it, and not all partners need be listed. Where a sequence is shown, tags or fusion partners need not be part of it.
